The supplement of paper PMC4604168 (melanoma cell lines)
The other results are listed elsewhere or left out. Many values rest on one well or one pass, so single values are uncertain.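 Imaging used 1,536-well plates; nuclei positive for cleaved PARP by antibody were divided by total DNA-stained nuclei to yield the apoptosis fraction. Doses for screening kept most cells viable, and cell lines differ markedly in resting and induced cleaved-PARP levels.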

Tested on: G361
Experiment: cleaved PARP positive nuclei fraction relative to DMSO control; melanoma cells; higher = more apoptosis
Settings: library dose: low library concentration; 72 h

Row | Structure (SMILES) | cleaved PARP positive nuclei fraction [%]
1 | COc1cc([C@@H]2c3cc4c(cc3[C@@H](O[C@@H]3O[C@@H]5CO[C@@H](C)O[C@H]5[C@H](O)[C@H]3O)[C@H]3COC(=O)[C@H]23)OCO4)cc(OC)c1O [etoposide] + CC(C)CCN1c2nc(Nc3cc(F)c(O)c(F)c3)ncc2N(C)C(=O)C1C [BID1870] (first compound 0.02 µM, partner dose 0.2 µM) | 71.9
2 | Cc1ccc(Nc2nccc(N(C)c3ccc4c(C)n(C)nc4c3)n2)cc1S(N)(=O)=O [Pazopanib] + CCN(CC)CCCCNc1ncc2cc(-c3cc(OC)cc(OC)c3)c(NC(=O)NC(C)(C)C)nc2n1 [PD173074] (first compound 0.4 µM, partner dose 0.1 µM) | 112
3 | Cc1cn(-c2cc(NC(=O)c3ccc(C)c(Nc4nccc(-c5cccnc5)n4)c3)cc(C(F)(F)F)c2)cn1 [nilotinib] + COc1ccc2c(c1)CCC1C2CCC2(C)C(NCCCCCCN3C(=O)C=CC3=O)CCC12 [U73122] (first compound 0.2 µM, partner dose 0.4 µM) | 165
4 | N#CC[C@H](C1CCCC1)n1cc(-c2ncnc3[nH]ccc23)cn1 [ruxolitinib] + COc1ccc2c(c1)CCC1C2CCC2(C)C(NCCCCCCN3C(=O)C=CC3=O)CCC12 [U73122] (first compound 1 µM, partner dose 0.4 µM) | 130
5 | CCCCCCCCCCCCCCCCCCOP(=O)([O-])OC1CC[N+](C)(C)CC1 [Perifosine] + O=C(O)C(=O)Nc1sc2c(c1C(=O)O)CCNC2 [TCS401] (first compound 0.4 µM, partner dose 1.66667 µM) | 160
6 | Cc1cn(-c2cc(NC(=O)c3ccc(C)c(Nc4nccc(-c5cccnc5)n4)c3)cc(C(F)(F)F)c2)cn1 [nilotinib] + COc1cc(N2CCC(N3CCN(C)CC3)CC2)ccc1Nc1ncc(Cl)c(Nc2ccccc2S(=O)(=O)C(C)C)n1 [NVP-TAE684] (first compound 0.2 µM, partner dose 0.08 µM) | 105
7 | Cc1ccc(Nc2nccc(N(C)c3ccc4c(C)n(C)nc4c3)n2)cc1S(N)(=O)=O [Pazopanib] + O=C(Nc1ccccc1)c1cc([N+](=O)[O-])ccc1Cl [GW9662] (first compound 0.4 µM, partner dose 2 µM) | 89.3
8 | O=C(Nc1cc(C(F)(F)F)cc(C(F)(F)F)c1)c1cc(Cl)ccc1O + O=C(O)C(=O)Nc1sc2c(c1C(=O)O)CCNC2 [TCS401] (first compound 0.016 µM, partner dose 1.66667 µM) | 95.2

Some of the entries so far, tab-delimited:
Row	Structure (SMILES)	cleaved PARP positive nuclei fraction [%]
6	Cc1cn(-c2cc(NC(=O)c3ccc(C)c(Nc4nccc(-c5cccnc5)n4)c3)cc(C(F)(F)F)c2)cn1 [nilotinib] + COc1cc(N2CCC(N3CCN(C)CC3)CC2)ccc1Nc1ncc(Cl)c(Nc2ccccc2S(=O)(=O)C(C)C)n1 [NVP-TAE684] (first compound 0.2 µM, partner dose 0.08 µM)	105
7	Cc1ccc(Nc2nccc(N(C)c3ccc4c(C)n(C)nc4c3)n2)cc1S(N)(=O)=O [Pazopanib] + O=C(Nc1ccccc1)c1cc([N+](=O)[O-])ccc1Cl [GW9662] (first compound 0.4 µM, partner dose 2 µM)	89.3

Tested on: IPC-298
Experiment: as above
Settings: library dose: low library concentration; 72 h

Row | Structure (SMILES) | cleaved PARP positive nuclei fraction [%]
9 | Cc1cc(Nc2cc(N3CCN(C)CC3)nc(Sc3ccc(NC(=O)C4CC4)cc3)n2)n[nH]1 [Tozasertib] + N#Cc1c(O)c2c(-c3ccc(-c4ccccc4O)cc3)csc2[nH]c1=O [A769662] (first compound 0.006 µM, partner dose 2 µM) | 88.8
10 | O=C(Nc1cc(C(F)(F)F)cc(C(F)(F)F)c1)c1cc(Cl)ccc1O + COc1ccc(COc2ccc(Cc3cnc(N)nc3N)cc2OC)cc1 [GW2580] (first compound 0.016 µM, partner dose 1 µM) | 48.8
11 | O=C(/C=C/c1cccnc1)NCCCCC1CCN(C(=O)c2ccccc2)CC1 + COc1cc(N2CCC(N3CCN(C)CC3)CC2)ccc1Nc1ncc(Cl)c(Nc2ccccc2S(=O)(=O)C(C)C)n1 [NVP-TAE684] (first compound 0.01 µM, partner dose 0.08 µM) | 328
12 | N#CC[C@H](C1CCCC1)n1cc(-c2ncnc3[nH]ccc23)cn1 [ruxolitinib] + Cn1cc(/C=C2\C(=O)Nc3cccnc32)c2ccccc21 [GW441756] (first compound 1 µM, partner dose 0.4 µM) | 178
13 | CCCCCCCCCCCCCCCCCCOP(=O)([O-])OC1CC[N+](C)(C)CC1 [Perifosine] + Oc1nc(-c2ccc(C(F)(F)F)cc2)nc2c1CSCC2 [XAV939] (first compound 0.4 µM, partner dose 2 µM) | 88.5
14 | O=C(/C=C/c1cccnc1)NCCCCC1CCN(C(=O)c2ccccc2)CC1 + Oc1nc(-c2ccc(C(F)(F)F)cc2)nc2c1CSCC2 [XAV939] (first compound 0.01 µM, partner dose 2 µM) | 235
15 | Cc1ccc(Nc2nccc(N(C)c3ccc4c(C)n(C)nc4c3)n2)cc1S(N)(=O)=O [Pazopanib] + N#Cc1c(O)c2c(-c3ccc(-c4ccccc4O)cc3)csc2[nH]c1=O [A769662] (first compound 0.4 µM, partner dose 2 µM) | 38.1
16 | N#CC[C@H](C1CCCC1)n1cc(-c2ncnc3[nH]ccc23)cn1 [ruxolitinib] + COc1cc2ncnc(Nc3ccc(Oc4ccccc4)cc3)c2cc1OC [SrcI1] (first compound 1 µM, partner dose 2 µM) | 49
17 | O=C(Nc1cc(C(F)(F)F)cc(C(F)(F)F)c1)c1cc(Cl)ccc1O + CCN(CC)CCCCNc1ncc2cc(-c3cc(OC)cc(OC)c3)c(NC(=O)NC(C)(C)C)nc2n1 [PD173074] (first compound 0.016 µM, partner dose 0.1 µM) | 96.4
18 | CCCCCCCCCCCCCCCCCCOP(=O)([O-])OC1CC[N+](C)(C)CC1 [Perifosine] + COc1ccc2c(c1)CCC1C2CCC2(C)C(NCCCCCCN3C(=O)C=CC3=O)CCC12 [U73122] (first compound 0.4 µM, partner dose 0.4 µM) | 46.2
19 | O=c1[nH]nc(Sc2ncc([N+](=O)[O-])s2)n1-c1ccc2c(c1)OCCO2 + N#Cc1c(O)c2c(-c3ccc(-c4ccccc4O)cc3)csc2[nH]c1=O [A769662] (first compound 0.2 µM, partner dose 2 µM) | 43.2
20 | O=c1[nH]nc(Sc2ncc([N+](=O)[O-])s2)n1-c1ccc2c(c1)OCCO2 + COc1ccc2c(c1)CCC1C2CCC2(C)C(NCCCCCCN3C(=O)C=CC3=O)CCC12 [U73122] (first compound 0.2 µM, partner dose 0.4 µM) | 47.2
21 | N#CC[C@H](C1CCCC1)n1cc(-c2ncnc3[nH]ccc23)cn1 [ruxolitinib] + O=C(Nc1ccccc1)c1cc([N+](=O)[O-])ccc1Cl [GW9662] (first compound 1 µM, partner dose 2 µM) | 191
22 | O=C(/C=C/c1cccnc1)NCCCCC1CCN(C(=O)c2ccccc2)CC1 + O=c1cc(-c2cccc3c2Sc2ccccc2S3)oc(N2CCOCC2)c1 [KU55933] (first compound 0.01 µM, partner dose 1 µM) | 454
23 | CCCCCCCCCCCCCCCCCCOP(=O)([O-])OC1CC[N+](C)(C)CC1 [Perifosine] + Cc1cc([N+](=O)[O-])ccc1NS(=O)(=O)c1cc(Cl)ccc1Cl [FH535] (first compound 0.4 µM, partner dose 1 µM) | 208
24 | N#CC[C@H](C1CCCC1)n1cc(-c2ncnc3[nH]ccc23)cn1 [ruxolitinib] + O=S(=O)(c1ccccc1)N(CC(F)(F)F)c1ccc(C(O)(C(F)(F)F)C(F)(F)F)cc1 [T0901317] (first compound 1 µM, partner dose 1.4 µM) | 148
25 | Cc1cn(-c2cc(NC(=O)c3ccc(C)c(Nc4nccc(-c5cccnc5)n4)c3)cc(C(F)(F)F)c2)cn1 [nilotinib] + COC(=O)c1sccc1S(=O)(=O)Nc1ccc(Nc2ccccc2)cc1OC [GSK0660] (first compound 0.2 µM, partner dose 1 µM) | 90.3
26 | Cc1ccc(Nc2nccc(N(C)c3ccc4c(C)n(C)nc4c3)n2)cc1S(N)(=O)=O [Pazopanib] + O=C(O)C(=O)Nc1sc2c(c1C(=O)O)CCNC2 [TCS401] (first compound 0.4 µM, partner dose 1.66667 µM) | 61.1
27 | N#CC[C@H](C1CCCC1)n1cc(-c2ncnc3[nH]ccc23)cn1 [ruxolitinib] + COc1ccc(COc2ccc(Cc3cnc(N)nc3N)cc2OC)cc1 [GW2580] (first compound 1 µM, partner dose 1 µM) | 36.4
28 | Cc1ccc(Nc2nccc(N(C)c3ccc4c(C)n(C)nc4c3)n2)cc1S(N)(=O)=O [Pazopanib] + CCc1ccc(CCOc2ccc(CC3SC(=O)NC3=O)cc2)nc1 [pioglitazone] (first compound 0.4 µM, partner dose 2 µM) | 73.3
29 | Cc1cc(Nc2cc(N3CCN(C)CC3)nc(Sc3ccc(NC(=O)C4CC4)cc3)n2)n[nH]1 [Tozasertib] + c1cc(-c2cnn3cc(-c4ccc(OCCN5CCCCC5)cc4)cnc23)ccn1 [Dorsomorphin] (first compound 0.006 µM, partner dose 0.4 µM) | 275
30 | Cc1ccc(Nc2nccc(N(C)c3ccc4c(C)n(C)nc4c3)n2)cc1S(N)(=O)=O [Pazopanib] + COC(=O)c1sccc1S(=O)(=O)Nc1ccc(Nc2ccccc2)cc1OC [GSK0660] (first compound 0.4 µM, partner dose 1 µM) | 124
31 | COc1cc([C@@H]2c3cc4c(cc3[C@@H](O[C@@H]3O[C@@H]5CO[C@@H](C)O[C@H]5[C@H](O)[C@H]3O)[C@H]3COC(=O)[C@H]23)OCO4)cc(OC)c1O [etoposide] + O=S(=O)(c1ccccc1)N(CC(F)(F)F)c1ccc(C(O)(C(F)(F)F)C(F)(F)F)cc1 [T0901317] (first compound 0.02 µM, partner dose 1.4 µM) | 196
